± gives the standard deviation of the averaged measurements. Some of the results follow. Values are raw readings; no control value is given beside them.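 A single yeast strain with four plasmids, each encoding a fluorescent protein and an amino-acid or uracil biosynthesis gene, seeds the community. Stochastic plasmid loss yields mixed prototroph and auxotroph subpopulations. Fixed cells were counted via automated confocal fluorescence imaging; DMSO-treated wells were the vehicle reference.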
The compounds below were run on Saccharomyces cerevisiae BY4741 SeMeCo community (assay: imaged cell count per well (cells); higher = more cells). Settings: 10 µM; 24 h; SM minimal medium.
Method: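 Same SeMeCo high-content imaging drug screen: Selleck FDA-approved drugs at 10 µM, 24 h in SM medium, 384-well plates, 3 replicates.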

Structure (SMILES)	imaged cell count per well
CC1CCc2c(N3CCC(O)CC3)c(F)cc3c(=O)c(C(=O)O)cn1c23 (centres undefined) [Nadifloxacin]	21700 ± 6600
CC(C)(C)[C@H]1CC[C@H](CC2=C(O)C(=O)c3ccccc3C2=O)CC1 [Buparvaquone]	32900 ± 2100
CNC1CCCN(c2c(F)cc3c(=O)c(C(=O)O)cn(C4CC4)c3c2OC)C1 (centres undefined) [Balofloxacin]	25200 ± 7200
CC1(C)S[C@@H]2[C@H](NC(=O)[C@H](NC(=O)N3CCN(S(C)(=O)=O)C3=O)c3ccccc3)C(=O)N2[C@H]1C(=O)O [Mezlocillin Sodium]	25200 ± 7000
Oc1c(Cl)cc(Cl)c2cccnc12 [Chloroxine]	655 ± 180
COc1ccc2c(c1)C(=O)N(CCc1ccc(S(=O)(=O)NC(=O)NC3CCCCC3)cc1)C(=O)C2(C)C [Gliquidone]	24400 ± 8300
C[N+](C)(C)CCOC(=O)CCC(=O)OCC[N+](C)(C)C [Succinylcholine Chloride Dihydrate]	26000 ± 6000
Nc1c(CC(=O)O)cccc1C(=O)c1ccc(Br)cc1 [Bromfenac Sodium]	19100 ± 10000
Oc1c(I)cc(Cl)c2cccnc12 [Clioquinol]	627 ± 690
CSc1nc2cc(Cl)c(Oc3cccc(Cl)c3Cl)cc2[nH]1 [Triclabendazole]	4930 ± 750
CCCCOc1ccc(CC(=O)NO)cc1 [Bufexamac]	23100 ± 4000
COc1ncnc(NS(=O)(=O)c2ccc(N)cc2)c1OC [Sulfadoxine]	20700 ± 2400
CN1C2CCCC1CC(NC(=O)c1nn(C)c3ccccc13)C2 (centres undefined) [Granisetron]	25700 ± 3400
CCCCCCCCCCCCCCCCOP(=O)([O-])OCC[N+](C)(C)C [Miltefosine]	2800 ± 410

Some of the entries so far, field by field:
CCCCOc1ccc(CC(=O)NO)cc1 [Bufexamac]
  imaged cell count per well: 23100 ± 4000
COc1ncnc(NS(=O)(=O)c2ccc(N)cc2)c1OC [Sulfadoxine]
  imaged cell count per well: 20700 ± 2400
